The text below walks through data of article PMC8445998 (Nature Communications, 2021).

Amino acid sequences for entries named in this document (tags omitted). A change or cut given only in a name is not applied to a line headed by its entry.
UniProt Q6PL11: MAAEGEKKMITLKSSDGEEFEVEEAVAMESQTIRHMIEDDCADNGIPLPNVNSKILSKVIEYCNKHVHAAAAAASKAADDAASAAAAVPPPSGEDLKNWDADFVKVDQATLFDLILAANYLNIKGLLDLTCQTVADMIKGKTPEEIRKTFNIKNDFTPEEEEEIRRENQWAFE

This assay has as its target T1, OsCOI1b-FLAG (rice) (UniProt Q60EH4).
T1 sequence: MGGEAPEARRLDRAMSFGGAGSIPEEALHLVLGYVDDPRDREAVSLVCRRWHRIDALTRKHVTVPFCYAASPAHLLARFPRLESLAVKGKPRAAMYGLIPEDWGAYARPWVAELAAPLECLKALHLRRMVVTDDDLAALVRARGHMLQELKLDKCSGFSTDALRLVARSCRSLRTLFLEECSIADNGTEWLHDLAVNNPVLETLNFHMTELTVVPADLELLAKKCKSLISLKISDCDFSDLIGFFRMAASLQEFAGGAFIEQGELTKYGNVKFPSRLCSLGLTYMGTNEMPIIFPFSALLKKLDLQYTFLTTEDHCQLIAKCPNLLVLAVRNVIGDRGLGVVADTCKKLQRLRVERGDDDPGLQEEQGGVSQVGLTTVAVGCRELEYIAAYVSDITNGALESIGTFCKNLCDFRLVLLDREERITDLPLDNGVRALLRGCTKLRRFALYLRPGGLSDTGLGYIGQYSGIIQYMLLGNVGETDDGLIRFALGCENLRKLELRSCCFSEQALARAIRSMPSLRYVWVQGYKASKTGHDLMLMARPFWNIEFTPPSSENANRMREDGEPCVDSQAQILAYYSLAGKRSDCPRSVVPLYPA
As to the kind of experiment: co-IP.

No constants are given. Whether binding was seen depends on the method and setting. In cells and extracts the contact can be indirect. Some binding calls cover weakened binding; strength is not graded here. Where a sequence is shown, tags or fusion partners need not be part of it.

As to OSK1-HA (from UniProt Q6PL11 1-173), the binding result was “binds”.
As to “OSK1^S53D-HA (from UniProt Q6PL11 1-173)”, the binding result is “binds”.
